Our source for the cell number change and AC50 values is PubChem BioAssay AID2685 (National Center for Advancing Translational Sciences (NCATS), 2010).

What is called AC50 is the midpoint of the concentration-response curve, whichever way the signal moves. A lower AC50 goes with activity at low concentration.

The structures appear in SMILES notation. The list shows a part of the results. Shown are side measurements of this screen, not its main read-out; they come without a call. The list favours compounds with an active or inconclusive main result. The note in brackets gives the kind of curve behind each potency; many fits are weak.

A short description of this test: qHTS Assay for Lipid Storage Modulators in Drosophila S3 Cells.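 As to cell number change: cells counted by Cell Tracker Red CMTPX staining in the red channel.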 The following applies: BODIPY lipid droplet fluorescence, 18-24 h; for cell number change: measured here: cell count max response, cells fed with added oleic acid. Summed up: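 Drosophila S3 cells got compounds at several concentrations plus oleic acid (400 uM solution). Laser-scanning cytometry with 488 nm excitation read lipid droplets at 500-530 nm and cells at 575-640 nm. Percent activity was relative to 20 uM Triacsin C.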

The mark [1] stands for this setting: measured here: cell number channel AC50, cells fed with added oleic acid.
Where [2] appears, read: measured here: lipid fluorescence (Fed channel) AC50, cells fed with added oleic acid.

`O=C(NCc1cccnc1)C1CCN(S(=O)(=O)c2cccnc2)CC1`: the cell number change was 17%. In addition, the AC50 under setting [1] is 0.00461 µM [rising, full curve, poor fit].
On to `CCOc1ccc(C(=O)COc2ccc(NC(C)=O)cc2)cc1`, for which the cell number change was -5.06%. Also, the AC50 under setting [1] is 0.00517 µM [rising, full curve, poor fit].
In the case of `OC1CCCN(C(=S)Nc2ccc(SC(F)F)cc2)C1` (centres undefined), the cell number change is 16.8%. Besides, under setting [2], the AC50 was 8.2 µM [rising, partial curve, poor fit].
On to `COc1cc(C(=O)OCC(=O)NC(N)=O)cc(CN2C(=O)c3ccccc3C2=O)c1OC`, for which the cell number change is 20.1%. Besides, the AC50 under setting [2] was 0.651 µM [rising, full curve, poor fit].
As for `COc1ccccc1NS(=O)(=O)c1cccc(C(=O)NCC(c2ccco2)N2CCCC2)c1` (centres undefined), the cell number change stood at 2.95%. In addition, the AC50 under setting [2] is 5.17 µM [rising, partial curve, poor fit].
`Nc1ncc(-c2cc3ccccc3oc2=O)s1`: the cell number change was -12.4%. Further, under setting [2], the AC50 was 0.461 µM [rising, partial curve, poor fit].
Turning to `OCCN1CCN(C(=S)Nc2ccc(SC(F)F)cc2)CC1`, the cell number change was 23.3%. Under setting [1], the AC50 was 4.61 µM [rising, full curve, poor fit].
On to `COc1ccccc1CNc1ccc(Br)cn1`, for which the cell number change was -30.6%. For the same compound, the AC50 under setting [1] was 16.4 µM [falling, single point].
Consider `Cc1cccc(NC(=O)/C(C#N)=C/c2cn(CC(=O)NCc3ccco3)c3ccccc23)c1`, for which the cell number change is 17.1%. The AC50 under setting [2] was 7.31 µM [rising, partial curve].
On to `CC(O)CNc1nc2c(c(=O)n(C)c(=O)n2C)n1Cc1cccc(Br)c1` (centres undefined), for which the cell number change turned out to be 46.7%. Moreover, the AC50 under setting [1] was 32.6 µM [rising, single point]. The AC50 under setting [2] is 18.4 µM [falling, single point].
For `Cc1ccnc(NS(=O)(=O)c2ccc(NC(=O)C3CC=CCC3C(=O)O)cc2)n1` (centres undefined), the cell number change came out at 18.9%. Moreover, under setting [2], the AC50 is 6.51 µM [falling, single point].
For `CS(=O)(=O)CCC(C(=O)n1nnc2ccccc21)N1C(=O)c2ccccc2C1=O` (centres undefined), the cell number change is -11.5%. Besides, the AC50 under setting [2] is 3.66 µM [falling, full curve, poor fit].
Turning to `CCOc1ccc(N=NC2C(=O)N(C(N)=S)N=C2C)cc1` (centres undefined), the AC50 under setting [2] is 4.61 µM [falling, partial curve].
In the case of `O=C(CN1C(=O)NC2(CCCC2)C1=O)OCCOc1ccccc1`, the cell number change was 19.8%. Also, under setting [1], the AC50 was 3.26 µM [rising, single point].
For the compound `Cc1onc(-c2ccccc2)c1C(=O)Nc1ccc(S(=O)(=O)N2CCCCC2)cc1`, the cell number change was -6.42%. Moreover, the AC50 under setting [2] was 32.6 µM [falling, single point].
`COc1cc(C(=O)Nc2ccc(C(=O)c3cccs3)cc2)cc(OC)c1OC`: the cell number change is -5.52%.
As for `COc1ccccc1N=C1NC(=O)/C(=C/c2ccc(N(C)C)cc2)S1`, the AC50 under setting [2] was 6.51 µM [falling, partial curve].
In the case of `CC(C)C(=O)Nc1cccc(-c2nc3ccccc3o2)c1`, the cell number change is -46.9%. Also, under setting [1], the half-maximal activity concentration (AC50) was 10.3 µM [falling, partial curve, poor fit]. Further, the AC50 under setting [2] is 0.731 µM [rising, full curve, poor fit].
Consider `COC(=O)c1c(C)[nH]c(C(=O)C(C)OC(=O)C2=NNC(=O)CC2)c1C` (centres undefined), for which the cell number change was found to be 9.45%.
Still for that read-out and setting: in the case of `CCCn1c2ccccc2c2cnn(CC(=O)NCCOC)c(=O)c21` it was 24.3%.
Consider `Cc1nn(C)c(C)c1/C=C1/SC(=S)NC1=O`, for which the AC50 under setting [2] was 3.26 µM [rising, single point].
As for `CC(=O)c1ccc(OCC(O)CN2CCN(S(=O)(=O)c3c(C)c(C)cc(C)c3C)CC2)cc1` (centres undefined), the cell number change was -19.8%. Moreover, the AC50 under setting [2] is 6.51 µM [rising, single point].
Turning to `Cc1ccc(Cn2c(SCC(C)C)nc3c2c(=O)[nH]c(=O)n3C)cc1`, the cell number change was -16.2%. Moreover, the AC50 under setting [1] is 4.11 µM [falling, single point]. In addition, the AC50 under setting [2] is 6.51 µM [falling, single point].
`O=C(NNC(=O)c1cc(-c2ccncc2)nc2ccccc12)Nc1ccc(F)cc1`: the cell number change stood at 19%. Also, under setting [2], the AC50 is 3.55 µM [rising, partial curve].
Regarding `CCCCn1nc(C(=O)Nc2cccc(C(=O)NC3CC3)c2)c2ccccc2c1=O`, the cell number change amounted to 26.6%. Besides, the AC50 under setting [2] was 25.9 µM [falling, single point].
With `O=C(NCc1cccs1)c1cc2ccccc2o1`, the cell number change was -9.03%.
Regarding `COCC(=O)OCC(=O)Nc1ccccc1-c1ccccc1`, under setting [1], the AC50 was 0.092 µM [falling, full curve, poor fit].
Take `CC1CCN(S(=O)(=O)c2cn(CC(=O)N3CCN(C)CC3)c(=O)c3ccccc23)CC1`: the cell number change was -16.3%. Moreover, under setting [2], the AC50 is 25.9 µM [rising, single point].
`COC(=O)c1ccccc1NC(=O)c1ccc(NS(C)(=O)=O)cc1`: the cell number change amounted to 110%. Further, the AC50 under setting [1] was 2.06 µM [rising, full curve]. In addition, the half-maximal activity concentration (AC50) under setting [2] is 1.84 µM [rising, full curve].
Regarding `CCS(=O)(=O)N1Cc2ccccc2CC1C(=O)OCC(=O)N(C(C)C)C(C)C` (centres undefined), the cell number change was 14.9%.
Turning to `Cc1ccc([N+](=O)[O-])cc1NC(=O)C1CCCC1`, the cell number change came to 8.2%. Moreover, the AC50 under setting [2] is 0.651 µM [rising, single point].
For `CCOc1ccc(NCC(=O)Nc2ccc(Cl)cc2C)cc1`, the cell number change was -34.2%. Further, under setting [1], the AC50 is 20.6 µM [falling, single point]. In addition, the AC50 under setting [2] is 18.4 µM [falling, single point].
For the compound `C=CCN1C(=O)C2(OCCCO2)c2cccc(Cl)c21`, the cell number change is -14.2%. For the same compound, under setting [1], the AC50 was 0.0103 µM [falling, full curve, poor fit].
As for `COc1ccccc1NS(=O)(=O)c1ccc2oc(SCC(C)=O)nc2c1`, the cell number change turned out to be 3.78%.
Consider `O=C(CSc1nc(-c2ccco2)cc(C(F)(F)F)n1)NCCCN1CCOCC1`, for which the cell number change is -25.5%. The AC50 under setting [2] is 29.1 µM [falling, single point].
Regarding `O=C(O)CN=CC1=C(O)CC(c2ccccc2)CC1=O` (centres undefined), the cell number change was found to be 22.8%. Also, under setting [2], the AC50 is 0.731 µM [rising, full curve, poor fit].
For `NC(=O)C1CC(=O)N(c2ccc(OCc3ccc(F)cc3)cc2)C1` (centres undefined), the cell number change was 18.5%. Under setting [2], the AC50 was 6.51 µM [rising, single point].
As for `O=C(NNC(=O)c1ccccc1F)c1ccc(NS(=O)(=O)c2ccc(F)cc2)cc1`, the cell number change is -4.82%.
The same measure, in the same setting: in the case of `COc1cc2nc(NCC3CCCO3)n3nc(-c4cccnc4)nc3c2cc1OC` (centres undefined) it was 6.17%; in that of `Cc1ccc(C2=NN(S(=O)(=O)c3ccccc3)C(c3ccco3)C2)cc1` (centres undefined), -9.33%.
Turning to `Cc1ccc(S(=O)(=O)NCC(=O)N/N=C/c2ccc(Cl)cc2Cl)cc1`, the cell number change was -36.2%. Also, the AC50 under setting [1] was 29.1 µM [falling, single point]. In addition, the half-maximal activity concentration (AC50) under setting [2] is 29.1 µM [falling, single point].
With `O=S(=O)(Nc1ccncc1)c1cc(Cl)c(Cl)cc1Cl`, the cell number change is -14.4%. In addition, the AC50 under setting [2] is 6.51 µM [falling, single point].
In the case of `O=C(Cn1nnc2ccccc2c1=O)NCCc1ccc(F)cc1`, the cell number change is -33.3%. Besides, under setting [1], the AC50 is 3.26 µM [rising, partial curve].
In the case of `CCOC(=O)c1c(C)c(C(=O)NC2CCCCC2)c(C)n1CC`, the AC50 under setting [2] was 3.66 µM [rising, single point].
`N#Cc1ccc(-c2csc(NC(=O)C3CC3)n2)cc1`: the cell number change stood at 31.3%. The AC50 under setting [1] was 3.66 µM [rising, single point].
With `O=C(COC(=O)c1ccccc1NS(=O)(=O)c1cccs1)NC1CCCCC1`, the cell number change is -13.2%. Further, under setting [2], the AC50 was 29.1 µM [falling, single point].
`CN(C(=O)CN1C(=O)c2cc(Cl)c(Cl)cc2C1=O)C1CCS(=O)(=O)C1` (centres undefined): the cell number change worked out at 9.61%. Further, under setting [2], the AC50 was 4.61 µM [rising, single point].
Turning to `COc1cc(C(=O)NC(C)C2CC3CCC2C3)ccc1OC(F)F` (centres undefined), the cell number change worked out at 27.6%. The AC50 under setting [2] was 1.03 µM [rising, full curve].
In the case of `Nc1nc2nc(-c3ccc(OCc4ccccc4)cc3)cc(C(F)(F)F)n2n1`, under setting [2], the AC50 is 0.731 µM [rising, single point].
For `CC(=O)Nc1ccc(S(=O)(=O)N2CCSC2C(=O)O)cc1` (centres undefined), the cell number change was 48.3%. For the same compound, under setting [1], the AC50 was 29.1 µM [rising, single point]. The AC50 under setting [2] is 29.1 µM [rising, single point].
On to `Cc1ccc2oc(C(=O)Nc3nnc(C)s3)c(C)c2c1`, for which the AC50 under setting [1] is 2.59 µM [rising, single point].
Take `O=C(Cn1nc(CNc2ccc(Br)cc2)[n+]2c1CCCCC2)c1ccc([N+](=O)[O-])cc1`: the cell number change is -21.8%. Also, under setting [2], the half-maximal activity concentration (AC50) was 29.1 µM [falling, single point].
Regarding `COc1ccccc1CNC(=O)COC(=O)Cc1c[nH]c2ccccc12`, the cell number change stood at 6%. Besides, the AC50 under setting [2] was 2.06 µM [falling, partial curve].
In the case of `O=C(CCc1nnc(CCCCc2ccccc2)o1)NCCC1CCCCO1` (centres undefined), the cell number change was -17.9%. Besides, the AC50 under setting [2] is 29.1 µM [falling, single point].
As to `Cc1nn(C)c(C)c1CN(C)S(=O)(=O)c1ccc2ccccc2c1`, the cell number change is -35%. The AC50 under setting [1] was 10.3 µM [falling, partial curve, poor fit]. Moreover, the concentration at half-maximal activity (AC50) under setting [2] is 8.2 µM [falling, partial curve].
With `COC(=O)c1ccc(NS(=O)(=O)c2ccc3[nH]c(=O)oc3c2)cc1`, the cell number change was 4.78%. Besides, under setting [2], the AC50 is 18.4 µM [rising, partial curve].
As to `CCN(CC)Cc1ccccc1CNC(=O)c1cccc(S(=O)(=O)Nc2ccc3c(c2)OCO3)c1`, the cell number change was -14.2%.
Take `COC(=O)CCS(=O)(=O)c1nc(-c2ccccc2)cc(C(F)(F)F)n1`: the cell number change is -87.8%. In addition, under setting [1], the AC50 was 18.4 µM [falling, single point]. The half-maximal activity concentration (AC50) under setting [2] was 3.26 µM [falling, partial curve].
With `Cc1[nH]c(=O)[nH]c(=O)c1S(=O)(=O)N1CCC(C(=O)NC(C)c2ccccc2)CC1` (centres undefined), the cell number change was -21.5%. Further, the AC50 under setting [2] was 1.64 µM [falling, full curve, poor fit].
As to `C/C(=N\NC(=O)c1cccc2ccccc12)c1ccccn1`, the cell number change is -36.2%. Moreover, under setting [1], the AC50 is 4.11 µM [falling, partial curve]. Also, the AC50 under setting [2] was 29.1 µM [falling, single point].
For the compound `O=C(c1ccc(-c2nc3ccccc3s2)s1)N1CCOCC1`, the AC50 under setting [1] is 0.731 µM [rising, single point].
